In test [1] the target is γ-tubulin (MCF7 cells) (human (endogenous in MCF7)) (UniProt P23258). The test can be described thus: co-IP; MCF7 extracts precipitated with antibody to SHP-1 or to γ-tubulin, immunoblot. (In general: A western blot detects proteins with antibodies after separation by electrophoresis.)
Test [2] concerns the target γ-tubulin (BMMCs) (mouse (endogenous in BMMCs)) (UniProt P83887). Put plainly: co-IP; BMMC extracts (HEPES buffer with 1% NP-40, protease inhibitors) incubated with antibodies immobilised on protein A or protein G beads, immunoblot; in Figure 9B cells nonactivated or antigen-activated (3 min, 10 min).
The target of test [3] is C-terminally EGFP-tagged mouse SHP-1 (mSHP-1_EGFP) (mouse) (UniProt P29351). Put plainly: co-IP; extracts of HEK cells expressing mSHP-1_EGFP or EGFP alone precipitated with antibody to GFP, blot for γ-tubulin.
The target of test [4] is SHP-1 (MCF7 cells) (human (endogenous in MCF7)) (UniProt P29350). Put plainly: co-IP; MCF7 extracts precipitated with antibody to SHP-1 or to γ-tubulin, immunoblot.

Protein sequences, listed by entry. Tags and fused reporters are not part of them. Lines headed by an entry give the natural chain unless they say otherwise; changes in a name come on top.
UniProt P23258: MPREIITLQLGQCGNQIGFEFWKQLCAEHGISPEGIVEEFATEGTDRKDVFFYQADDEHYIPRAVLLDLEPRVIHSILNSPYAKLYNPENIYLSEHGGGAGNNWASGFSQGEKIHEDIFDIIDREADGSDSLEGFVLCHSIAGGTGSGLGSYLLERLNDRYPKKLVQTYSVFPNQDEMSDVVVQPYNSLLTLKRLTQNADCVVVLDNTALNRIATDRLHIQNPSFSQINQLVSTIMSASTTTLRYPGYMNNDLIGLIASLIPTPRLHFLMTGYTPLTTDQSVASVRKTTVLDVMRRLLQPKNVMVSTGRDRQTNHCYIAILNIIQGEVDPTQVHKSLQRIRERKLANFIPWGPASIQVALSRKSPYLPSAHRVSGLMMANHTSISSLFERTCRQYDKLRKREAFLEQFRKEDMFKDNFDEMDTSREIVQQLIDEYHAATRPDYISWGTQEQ
UniProt P83887: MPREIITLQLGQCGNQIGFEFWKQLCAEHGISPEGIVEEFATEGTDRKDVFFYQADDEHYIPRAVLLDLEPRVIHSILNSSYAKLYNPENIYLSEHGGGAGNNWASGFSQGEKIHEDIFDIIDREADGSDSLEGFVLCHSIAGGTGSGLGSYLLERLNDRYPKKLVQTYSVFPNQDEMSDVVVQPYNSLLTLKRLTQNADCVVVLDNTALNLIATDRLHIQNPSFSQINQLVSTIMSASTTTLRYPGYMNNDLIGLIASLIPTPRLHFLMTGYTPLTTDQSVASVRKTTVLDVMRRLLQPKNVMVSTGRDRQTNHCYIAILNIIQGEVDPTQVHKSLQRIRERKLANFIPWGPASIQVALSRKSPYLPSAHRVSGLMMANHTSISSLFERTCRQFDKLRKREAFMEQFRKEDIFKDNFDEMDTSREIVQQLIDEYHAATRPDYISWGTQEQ
UniProt P29351: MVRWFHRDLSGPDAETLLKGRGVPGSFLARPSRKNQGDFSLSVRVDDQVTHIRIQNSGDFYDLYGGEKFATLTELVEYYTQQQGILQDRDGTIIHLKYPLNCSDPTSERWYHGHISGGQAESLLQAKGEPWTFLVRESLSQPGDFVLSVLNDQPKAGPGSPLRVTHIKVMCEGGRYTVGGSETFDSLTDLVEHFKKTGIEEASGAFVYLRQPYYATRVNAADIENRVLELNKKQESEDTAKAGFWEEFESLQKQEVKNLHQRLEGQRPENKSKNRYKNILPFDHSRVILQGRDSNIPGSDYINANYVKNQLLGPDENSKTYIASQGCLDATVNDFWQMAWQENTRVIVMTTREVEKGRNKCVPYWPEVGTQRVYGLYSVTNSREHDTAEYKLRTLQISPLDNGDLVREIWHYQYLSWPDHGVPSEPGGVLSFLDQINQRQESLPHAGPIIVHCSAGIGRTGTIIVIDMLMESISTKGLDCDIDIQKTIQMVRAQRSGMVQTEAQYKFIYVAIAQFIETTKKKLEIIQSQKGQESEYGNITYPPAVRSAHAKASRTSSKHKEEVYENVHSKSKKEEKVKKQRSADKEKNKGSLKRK
UniProt P29350: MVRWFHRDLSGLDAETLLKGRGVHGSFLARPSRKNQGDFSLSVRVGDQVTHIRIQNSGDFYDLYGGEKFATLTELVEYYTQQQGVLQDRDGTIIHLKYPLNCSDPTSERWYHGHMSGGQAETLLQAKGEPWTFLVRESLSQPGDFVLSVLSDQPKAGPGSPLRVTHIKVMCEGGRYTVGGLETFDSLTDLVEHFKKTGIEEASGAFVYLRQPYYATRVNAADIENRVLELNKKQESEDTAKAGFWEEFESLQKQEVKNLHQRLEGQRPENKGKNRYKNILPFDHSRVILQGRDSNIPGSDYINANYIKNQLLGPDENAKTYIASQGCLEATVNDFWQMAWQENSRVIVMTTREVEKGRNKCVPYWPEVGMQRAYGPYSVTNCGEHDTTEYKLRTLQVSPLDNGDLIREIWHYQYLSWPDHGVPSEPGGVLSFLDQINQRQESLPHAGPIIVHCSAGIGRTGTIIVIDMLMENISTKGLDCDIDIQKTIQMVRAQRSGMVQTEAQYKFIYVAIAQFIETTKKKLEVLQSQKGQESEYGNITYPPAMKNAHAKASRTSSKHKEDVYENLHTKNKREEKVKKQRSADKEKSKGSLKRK

These are yes or no findings as the source states them, for the method shown. Binding seen in cells or lysates may run through a third protein. Binding can be weak; no strength is given.

As for “SHP-1 (MCF7 cells) (from UniProt P29350 1-595) (enzyme)”, in test [1], the binding entry is recorded as “binds”.
On to “SHP-2 (gene Ptpn11) (from UniProt P35235 1-593) (enzyme)”, for which, in test [2], the binding result is reported as “no binding”.
Still for that read-out and setting: then “Src homology 2 (SH2) domain-containing protein tyrosine phosphatase 1 (SHP-1; Ptpn6) (from UniProt P29351 1-595) (enzyme)”, with “binds”.
As for “γ-tubulin (HEK cells) (from UniProt P23258)”, the binding result in test [3] is given as “binds”.
Turning to “γ-tubulin (MCF7 cells) (from UniProt P23258)”, the binding result in test [4] was “binds”.

For the origin of these results see PMC6523986.
